Data on 37 compounds can be found in the supplement of paper PMC7024190.

The list shows a part of the results. Repeats in this data set agree poorly, so a single value says little.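 The cells were human embryonic kidney cells carrying a Renilla luciferase gene, driven by the HSV-TK promoter, on a plasmid put in briefly by transfection. This is the first-round screen of about ten thousand compounds, looking for ones that raise reporter output.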

The test system of this assay is HEK 293FT. The experiment in a line: log relative Renilla luciferase luminescence (reporter expression vs reference, reference not stated) (log (base not stated)); higher = higher recombinant reporter expression. The settings on record: 10 µM; time after transfection 48 h. As to the method: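 HEK 293FT cells transiently transfected with pRL-TK (Renilla luciferase) were treated with compounds at 10 uM and luminescence was read about 42 h later. Values are log relative Renilla luminescence (log base and reference not stated). Single-pass screen; ICCB Known Bioactives library.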
Turning to `CCCCC[C@H](O)/C=C/[C@H]1C(=O)C=C[C@@H]1C/C=C\CCCC(=O)O` [Prostaglandin J2], the log was -0.173.

`COc1ccc2cc1Oc1ccc(cc1)C[C@H]1c3cc(c(OC)cc3CCN1C)Oc1c(OC)c(OC)cc3c1[C@H](C2)N(C)CC3` [Tetrandrine]: the log was 0.158.

`CCCCC/C=C\C/C=C\C/C=C\CCCCCCC(=O)O` [Dihomo-gamma-linolenic acid]: the log was -0.281. Turning to `CCCCC[C@H](O)/C=C/[C@H]1C=CC(=O)[C@@H]1CCCCCCC(=O)O` [Prostaglandin A1], the log is -0.0562.

For the compound `O=C1NC(=O)C(c2ccccc2)(c2ccccc2)N1` [Phenytoin], the log stood at 0.164. On to `CCOC(=O)C(C)(C)Oc1ccc(Cl)cc1` [Clofibrate], for which the log was determined as 0.0641.

Turning to `COc1ccc(CCN(C)CCCC(C#N)(c2ccc(OC)c(OC)c2)C(C)C)cc1OC` (configuration not stated) [Verapamil], the log was 0.0279. With `CCCCCCCCCCCCCC(=O)N[C@@H](C)[C@H](O)c1ccccc1` [MAPP, L-erythro] the figure was -0.172; with `CC1(C2CCCC2)Cc2cc(OCC(=O)O)c(Cl)c(Cl)c2C1=O` (configuration not stated), 0.163; with `COc1ccc([C@@H]2Sc3ccccc3N(CCN(C)C)C(=O)[C@@H]2OC(C)=O)cc1` [Diltiazem], 0.232.

For `O=C1CN(/N=C/c2ccc(-c3ccc([N+](=O)[O-])cc3)o2)C(=O)N1` [Dantrolene], the log was -0.115. As for `O=C(O)CCCC=CCC1C(O)CC(O)C1C=CC(O)COc1cccc(Cl)c1` (configuration not stated) [Cloprostenol Na], the figure is -0.0134; as for `COC(=O)C1=C(C)NC(C)=C([N+](=O)[O-])C1c1ccccc1C(F)(F)F` (configuration not stated), -0.177; as for `CCCCCCCCCCC1=C(C)C(=O)C(OC)=C(OC)C1=O` [Decylubiquinone], 0.169. As for `O=C1CCc2c(ccc3ccccc23)O1` [Splitomycin], the figure is 0.0475; as for `CCCCCC(O)C=CC1C2CC(CO2)C1CC=CCCCC(=O)O` (configuration not stated), -0.167. On to `CC1(C)CCC2=C(O1)c1ccccc1C(=O)C2=O` [b-Lapachone], for which the log was -1.8. As for `CC/C(=C(\c1ccccc1)c1ccc(OCCN(C)C)cc1)c1ccccc1` [Tamoxifen], the figure is -0.182; as for `CCCCNC(=O)NS(=O)(=O)c1ccc(C)cc1` [Tolbutamide], 0.285. Turning to `CCCCCCCCCCCCCCCC(=O)N[C@H](CN1CCOCC1)[C@H](O)c1ccccc1` (racemic), the log is -0.0917. As for `CCCCC/C=C\C\C=C/C=C/C=C/[C@@H](SC[C@H](NC(=O)CC[C@H](N)C(=O)O)C(=O)NCC(=O)O)[C@@H](O)CCCC(=O)O` [Leukotriene C4], the log is -0.232. With `Cn1cc(C2=C(c3cn(CCCSC(=N)N)c4ccccc34)C(=O)NC2=O)c2ccccc21` the figure was -1.03; with `CC1=C(/C=C/C(C)=C\C=C\C(C)=C\C(=O)O)C(C)(C)CCC1` [9-cis Retinoic acid], 0.201; with `C#CCCCCCCCCCCCCCCCC(=O)O` [17-Octadecynoic acid], 0.0787. With `CCCCCC(=O)/C=C/C=C\C/C=C\C/C=C\CCCC(=O)O` [15-Ketoeicosatetraenoic acid] the figure was 0.0498. With `CC(C)[C@@H](O)CC[C@@H](C)[C@H]1CC[C@H]2[C@@H]3CC=C4C[C@@H](O)CC[C@]4(C)[C@H]3CC[C@]12C` [24(S)-Hydroxycholesterol] the figure was 0.318; with `O=c1oc(Cl)c(Cl)c2ccccc12` [3,4-Dichloroisocoumarin], 0.00644; with `CCCC(=O)Nc1ncnc2c1ncn2[C@@H]1O[C@@H]2COP(=O)(O)O[C@H]2[C@H]1OC(=O)CCC` [Dibutyrylcyclic AMP], 0.275. In the case of `O=Nc1c(-c2c(O)[nH]c3ccccc23)[nH]c2ccccc12` [Indirubin-3'-monoxime], the log was -0.412. In the case of `Cc1ccc2c(c1)C(=O)C1(O)CCN(c3ccccc3)C1=N2` (configuration not stated) [Blebbistatin], the log was -0.591. For the compound `N#CC(=Cc1ccc2[nH]ccc2c1)C(N)=C(C#N)C#N`, the log was -0.474. With `CC1=C(/C=C/C(C)=C/C=C/C(C)=C\C(=O)O)C(C)(C)CCC1` [13-cis Retinoic acid] the figure was 0.0559; with `COc1ccc2c(c1)CCC1C2CCC2(C)C(NCCCCCCN3C(=O)C=CC3=O)CCC12` (configuration not stated), -0.0494; with `COC(C)(C)CCCC(C)C/C=C/C(C)=C/C(=O)O` (configuration not stated) [Methoprene acid], -0.0792. Turning to `CCOc1ccc(-c2nc3ccc(-c4nc5ccc(N6CCN(C)CC6)cc5[nH]4)cc3[nH]2)cc1`, the log was -1.93. As for `O=C(O)c1ccccc1Nc1ccccc1` [N-Phenylanthranilic acid], the figure is 0.205; as for `Cn1c2ccccc2c2c3c(c4c5ccccc5n(CCC#N)c4c21)CNC3=O`, -1.38.
